In this test the target is FLAG-tagged CSL V237R (human) (UniProt Q06330). The test can be described thus: co-IP; HEK293T cells expressing FLAG-tagged CSL FL, BTD or point mutants plus/minus FL UPF1 or FL Ku70; anti-FLAG M2 magnetic beads, immunoblotting. A general note: In western blotting, separated proteins are transferred to a membrane and probed.

Sequences of proteins named here, by UniProt entry; tags and fusion partners are left off. A change or cut given only in a name is not applied to a line headed by its entry.
UniProt Q06330: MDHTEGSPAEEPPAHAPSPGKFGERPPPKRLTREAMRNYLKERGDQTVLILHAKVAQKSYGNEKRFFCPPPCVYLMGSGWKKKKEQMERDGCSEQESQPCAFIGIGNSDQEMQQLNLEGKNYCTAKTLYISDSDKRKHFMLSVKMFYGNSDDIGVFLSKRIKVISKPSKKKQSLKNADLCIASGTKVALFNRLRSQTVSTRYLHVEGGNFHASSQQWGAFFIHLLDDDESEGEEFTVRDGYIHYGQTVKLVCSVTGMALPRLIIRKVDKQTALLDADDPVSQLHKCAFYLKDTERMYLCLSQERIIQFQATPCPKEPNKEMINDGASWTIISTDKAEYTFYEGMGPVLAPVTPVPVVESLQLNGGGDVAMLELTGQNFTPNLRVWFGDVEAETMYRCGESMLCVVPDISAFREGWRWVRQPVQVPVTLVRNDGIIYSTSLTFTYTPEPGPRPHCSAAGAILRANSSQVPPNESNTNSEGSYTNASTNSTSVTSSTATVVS

Results are given in words; binding and its absence hold for the method and conditions named. In cells and extracts the contact can be indirect. Binding can be weak; no strength is given.

B1: UPF1 in HEK293T cells (protein, UniProt Q92900 1-1129)
chain: MSVEAYGPSSQTLTFLDTEEAELLGADTQGSEFEFTDFTLPSQTQTPPGGPGGPGGGGAGGPGGAGAGAAAGQLDAQVGPEGILQNGAVDDSVAKTSQLLAELNFEEDEEDTYYTKDLPIHACSYCGIHDPACVVYCNTSKKWFCNGRGNTSGSHIVNHLVRAKCKEVTLHKDGPLGETVLECYNCGCRNVFLLGFIPAKADSVVVLLCRQPCASQSSLKDINWDSSQWQPLIQDRCFLSWLVKIPSEQEQLRARQITAQQINKLEELWKENPSATLEDLEKPGVDEEPQHVLLRYEDAYQYQNIFGPLVKLEADYDKKLKESQTQDNITVRWDLGLNKKRIAYFTLPKTDSGNEDLVIIWLRDMRLMQGDEICLRYKGDLAPLWKGIGHVIKVPDNYGDEIAIELRSSVGAPVEVTHNFQVDFVWKSTSFDRMQSALKTFAVDETSVSGYIYHKLLGHEVEDVIIKCQLPKRFTAQGLPDLNHSQVYAVKTVLQRPLSLIQGPPGTGKTVTSATIVYHLARQGNGPVLVCAPSNIAVDQLTEKIHQTGLKVVRLCAKSREAIDSPVSFLALHNQIRNMDSMPELQKLQQLKDETGELSSADEKRYRALKRTAERELLMNADVICCTCVGAGDPRLAKMQFRSILIDESTQATEPECMVPVVLGAKQLILVGDHCQLGPVVMCKKAAKAGLSQSLFERLVVLGIRPIRLQVQYRMHPALSAFPSNIFYEGSLQNGVTAADRVKKGFDFQWPQPDKPMFFYVTQGQEEIASSGTSYLNRTEAANVEKITTKLLKAGAKPDQIGIITPYEGQRSYLVQYMQFSGSLHTKLYQEVEIASVDAFQGREKDFIILSCVRANEHQGIGFLNDPRRLNVALTRARYGVIIVGNPKALSKQPLWNHLLNYYKEQKVLVEGPLNNLRESLMQFSKPRKLVNTINPGARFMTTAMYDAREAIIPGSVYDRSSQGRPSSMYFQTHDQIGMISAGPSHVAAMNIPIPFNLVMPPMPPPGYFGQANGPAAGRGTPKGKTGRGGRQKNRFGLPGPSQTNLPNSQASQDVASQPFSQGALTQGYISMSQPSQMSQPGLSQPELSQDSYLGDEFKSQIDVALSQDSTYQGERAYQHGGVTGLSQY
Regarding B1, the binding entry is “binds”.

The values above are taken from PMC6715699.
